Publication PMC12835413, “Allosteric zinc inhibition and interdomain regulation govern the catalytic mechanism of the E3-independent ubiquitin-conjugating enzyme hUBE2O” (The Journal of Biological Chemistry, 2025)
Changes are numbered by the printed parent chain. Names may count otherwise. Results are given in words; binding and its absence hold for the method and conditions named. Binding seen in cells or lysates may run through a third protein. Some entries that bind do so weakly or less than the wild type. Where a sequence is shown, tags or fusion partners need not be part of it.

Protein sequences, listed by entry. Tags and fused reporters are not part of them.
UniProt P26231: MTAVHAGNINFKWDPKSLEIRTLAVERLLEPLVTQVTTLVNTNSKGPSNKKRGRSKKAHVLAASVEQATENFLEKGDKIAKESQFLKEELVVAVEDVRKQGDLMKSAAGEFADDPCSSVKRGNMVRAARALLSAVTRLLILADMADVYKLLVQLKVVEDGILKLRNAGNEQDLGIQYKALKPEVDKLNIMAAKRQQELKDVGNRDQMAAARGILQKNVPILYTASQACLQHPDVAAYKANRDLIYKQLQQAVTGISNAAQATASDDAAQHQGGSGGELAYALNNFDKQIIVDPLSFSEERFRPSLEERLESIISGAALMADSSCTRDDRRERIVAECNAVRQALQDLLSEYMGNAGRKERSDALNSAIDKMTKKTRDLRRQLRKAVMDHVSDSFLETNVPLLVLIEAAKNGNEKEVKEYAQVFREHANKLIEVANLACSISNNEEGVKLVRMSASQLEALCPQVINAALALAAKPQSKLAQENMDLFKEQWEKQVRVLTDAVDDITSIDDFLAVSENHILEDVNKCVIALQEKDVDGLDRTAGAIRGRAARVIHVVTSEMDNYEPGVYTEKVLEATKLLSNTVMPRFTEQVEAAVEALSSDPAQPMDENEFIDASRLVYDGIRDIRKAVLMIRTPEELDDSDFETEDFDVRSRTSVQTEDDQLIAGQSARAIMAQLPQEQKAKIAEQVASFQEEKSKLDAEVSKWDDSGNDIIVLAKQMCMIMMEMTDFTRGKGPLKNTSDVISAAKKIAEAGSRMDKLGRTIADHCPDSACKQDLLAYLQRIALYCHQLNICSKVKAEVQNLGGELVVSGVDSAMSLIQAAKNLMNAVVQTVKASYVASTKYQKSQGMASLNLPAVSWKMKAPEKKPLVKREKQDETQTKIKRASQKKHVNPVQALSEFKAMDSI

T1: full-length hUBE2O (FL-hUBE2O), wild type, expressed in transfected cells (human) (UniProt Q9C0C9)
T1 sequence: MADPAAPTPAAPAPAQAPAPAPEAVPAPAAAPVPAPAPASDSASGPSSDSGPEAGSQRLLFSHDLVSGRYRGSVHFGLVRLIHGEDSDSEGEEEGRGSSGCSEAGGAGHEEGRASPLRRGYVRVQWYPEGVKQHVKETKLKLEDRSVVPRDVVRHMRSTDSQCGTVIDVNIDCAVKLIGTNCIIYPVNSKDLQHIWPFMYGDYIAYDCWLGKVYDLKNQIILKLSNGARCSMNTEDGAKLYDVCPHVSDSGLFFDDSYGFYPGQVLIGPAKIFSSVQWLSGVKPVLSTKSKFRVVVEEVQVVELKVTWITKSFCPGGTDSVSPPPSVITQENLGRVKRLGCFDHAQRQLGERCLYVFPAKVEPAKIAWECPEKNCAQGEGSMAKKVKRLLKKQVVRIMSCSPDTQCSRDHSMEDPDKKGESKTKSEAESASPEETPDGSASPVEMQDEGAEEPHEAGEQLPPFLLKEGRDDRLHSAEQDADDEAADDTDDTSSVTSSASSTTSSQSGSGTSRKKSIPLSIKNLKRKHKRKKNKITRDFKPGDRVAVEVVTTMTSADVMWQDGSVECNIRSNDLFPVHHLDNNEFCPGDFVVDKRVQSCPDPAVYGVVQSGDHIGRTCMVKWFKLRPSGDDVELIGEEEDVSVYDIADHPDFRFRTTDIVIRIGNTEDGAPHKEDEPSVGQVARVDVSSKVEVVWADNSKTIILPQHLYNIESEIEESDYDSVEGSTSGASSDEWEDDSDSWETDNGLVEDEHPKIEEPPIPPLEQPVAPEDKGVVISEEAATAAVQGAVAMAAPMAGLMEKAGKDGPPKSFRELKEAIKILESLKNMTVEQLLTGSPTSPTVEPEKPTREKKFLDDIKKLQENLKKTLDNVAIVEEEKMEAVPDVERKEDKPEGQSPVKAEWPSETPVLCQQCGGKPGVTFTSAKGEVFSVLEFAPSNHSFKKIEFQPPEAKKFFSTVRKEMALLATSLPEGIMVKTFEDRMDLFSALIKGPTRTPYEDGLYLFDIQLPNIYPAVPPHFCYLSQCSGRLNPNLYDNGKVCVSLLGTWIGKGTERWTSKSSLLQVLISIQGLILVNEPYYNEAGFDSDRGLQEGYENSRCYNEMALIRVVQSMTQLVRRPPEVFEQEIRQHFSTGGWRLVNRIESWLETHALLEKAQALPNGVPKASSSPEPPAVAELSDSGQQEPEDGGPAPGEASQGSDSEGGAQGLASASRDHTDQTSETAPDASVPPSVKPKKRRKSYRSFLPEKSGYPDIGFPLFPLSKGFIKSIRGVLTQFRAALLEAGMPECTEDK

T2: hUBE2O T995A mutant (human) (UniProt Q9C0C9)
T2 sequence: T1 sequence with T995A

B1: RECQL4 (HA-RECQL4) (protein, UniProt O94761 1-1208)
chain: MERLRDVRERLQAWERAFRRQRGRRPSQDDVEAAPEETRALYREYRTLKRTTGQAGGGLRSSESLPAAAEEAPEPRCWGPHLNRAATKSPQSTPGRSRQGSVPDYGQRLKANLKGTLQAGPALGRRPWPLGRASSKASTPKPPGTGPVPSFAEKVSDEPPQLPEPQPRPGRLQHLQASLSQRLGSLDPGWLQRCHSEVPDFLGAPKACRPDLGSEESQLLIPGESAVLGPGAGSQGPEASAFQEVSIRVGSPQPSSSGGEKRRWNEEPWESPAQVQQESSQAGPPSEGAGAVAVEEDPPGEPVQAQPPQPCSSPSNPRYHGLSPSSQARAGKAEGTAPLHIFPRLARHDRGNYVRLNMKQKHYVRGRALRSRLLRKQAWKQKWRKKGECFGGGGATVTTKESCFLNEQFDHWAAQCPRPASEEDTDAVGPEPLVPSPQPVPEVPSLDPTVLPLYSLGPSGQLAETPAEVFQALEQLGHQAFRPGQERAVMRILSGISTLLVLPTGAGKSLCYQLPALLYSRRSPCLTLVVSPLLSLMDDQVSGLPPCLKAACIHSGMTRKQRESVLQKIRAAQVHVLMLTPEALVGAGGLPPAAQLPPVAFACIDEAHCLSQWSHNFRPCYLRVCKVLRERMGVHCFLGLTATATRRTASDVAQHLAVAEEPDLHGPAPVPTNLHLSVSMDRDTDQALLTLLQGKRFQNLDSIIIYCNRREDTERIAALLRTCLHAAWVPGSGGRAPKTTAEAYHAGMCSRERRRVQRAFMQGQLRVVVATVAFGMGLDRPDVRAVLHLGLPPSFESYVQAVGRAGRDGQPAHCHLFLQPQGEDLRELRRHVHADSTDFLAVKRLVQRVFPACTCTCTRPPSEQEGAVGGERPVPKYPPQEAEQLSHQAAPGPRRVCMGHERALPIQLTVQALDMPEEAIETLLCYLELHPHHWLELLATTYTHCRLNCPGGPAQLQALAHRCPPLAVCLAQQLPEDPGQGSSSVEFDMVKLVDSMGWELASVRRALCQLQWDHEPRTGVRRGTGVLVEFSELAFHLRSPGDLTAEEKDQICDFLYGRVQARERQALARLRRTFQAFHSVAFPSCGPCLEQQDEERSTRLKDLLGRYFEEEEGQEPGGMEDAQGPEPGQARLQDWEDQVRCDIRQFLSLRPEEKFSSRAVARIFHGIGSPCYPAQVYGQDRRFWRKYLHLSFHALVGLATEELLQVAR
B2: hUBE2O T995A mutant (enzyme, UniProt Q9C0C9 1-1292)
chain: T1 sequence with T995A

Key:
[1] = target: T1, full-length hUBE2O (FL-hUBE2O), wild type, expressed in transfected cells (human); test: co-IP; lysates of transfected cells (0.5% NP40, 150 mM NaCl, 50 mM Tris pH 8.0, 1 mM EDTA, 10% glycerol), anti-Flag M2 affinity gel 90 min at 4 °C, 3 washes, immunoblotting
[2] = target: T2, hUBE2O T995A mutant (human); test: as above

Molecule | binding [1] | binding [2]
CTNNA1 (HA-mCTNNA1) (from UniProt P26231 1-906) | binds | binds
B1 | binds | binds
B2 |  | binds
